{"source": "patent US20260373233A1", "about": "“ISLET AMYLOID POLYPEPTIDE ISOFORMS AND PEPTIDES AND METHODS OF USE” (The United States of America, as represented by the …, priority 2022, published 2026)", "key": {"[1]": {"assay": "SRM-MS (LC-MS/MS) measurement of IAPP isoform peptides in plasma samples", "set-up": "species or system human", "conditions": "AD vs normal control plasma; p<0.0001 (pro-IAPPβ), 0.0229 (pro-IAPPγ), 0.0224 (fs-IAPPγ)"}, "[2]": {"assay": "SRM-MS (LC-MS/MS) measurement of IAPP isoform peptides in CSF", "set-up": "species or system human", "conditions": "for difference of level between MCI/AD and control CSF: p=0.6237 (pro-IAPPγ), 0.3852 (fs-IAPPγ)"}, "[3]": {"assay": "Human IAPP ELISA of plasma samples", "conditions": "AD vs control plasma; t(26)=0.25, p=0.8044"}}, "note": "Peptide text beside a SMILES is read from it. * marks the point of attachment. Cam = NC(=O)C*", "data": [{"compound": "CC(C)C[C@H](NC(=O)[C@@H](NC(=O)[C@H](C)NC(=O)[C@H](CC(N)=O)NC(=O)CNC(=O)[C@@H](N)CO)[C@@H](C)O)C(=O)N1CCC[C@H]1C(=O)N[C@@H](Cc1c[nH]cn1)C(=O)N[C@H](C(=O)N[C@@H](CCC(N)=O)C(=O)N[C@@H](CCCNC(=N)N)C(=O)O)C(C)C", "note": "[fs-IAPPγ] (H-SGNATLPHVQR-OH)", "values": [{"measurement": "level in AD plasma samples, % of normal controls", "setting": "[1]", "result": 72.6, "unit": "%"}, {"measurement": "CSF level, % of pro-IAPPγ", "setting": "[2]; CSF", "result": 5, "unit": "%"}, {"measurement": "difference of level between MCI/AD and control CSF", "setting": "[2]; MCI/AD vs control CSF", "result": "no significant differences"}]}, {"compound": "CC[C@H](C)[C@H](NC(=O)[C@@H]1CCCN1C(=O)[C@@H](NC(=O)[C@H](CCC(N)=O)NC(=O)[C@H](CC(=O)O)NC(=O)[C@H](CC(C)C)NC(=O)[C@@H](N)CSCC(N)=O)[C@@H](C)CC)C(=O)N[C@@H](Cc1ccccc1)C(=O)N[C@H](C(=O)N[C@H](C(=O)N[C@@H](Cc1ccccc1)C(=O)N[C@@H](CCC(N)=O)C(=O)N[C@@H](CCC(=O)O)C(=O)N[C@@H](CC(N)=O)C(=O)N[C@@H](Cc1c[nH]cn1)C(=O)N[C@@H](CCC(N)=O)C(=O)N[C@H](C(=O)N[C@@H](CCC(=O)O)C(=O)N[C@@H](CCCCN)C(=O)O)C(C)C)C(C)C)[C@@H](C)O", "note": "[pro-IAPPβ] (H-C(Cam)LDQIPIFTVFQENHQVEK-OH)", "values": [{"measurement": "level in AD plasma samples, % of normal controls", "setting": "[1]", "result": 56.5, "unit": "%"}, {"measurement": "fold increase of level in MCI/AD CSF compared to controls", "setting": "[2]; MCI/AD vs control CSF, p=0.0102", "result": "about 3.4 fold"}]}, {"compound": "CC[C@H](C)[C@H](NC(=O)[C@H](Cc1c[nH]c2ccccc12)NC(=O)[C@H](CCC(=O)O)NC(=O)[C@@H](N)CCC(N)=O)C(=O)N[C@H](C(=O)N1CCC[C@H]1C(=O)N[C@H](C(=O)N[C@@H](CC(C)C)C(=O)N[C@@H](CO)C(=O)N[C@@H](CCCNC(=N)N)C(=O)O)C(C)C)[C@@H](C)CC", "note": "[pro-IAPPγ] (H-QEWIIPVLSR-OH)", "values": [{"measurement": "level in AD plasma samples, % of normal controls", "setting": "[1]", "result": 82.0, "unit": "%"}, {"measurement": "CSF level, % of pro-IAPPβ", "setting": "[2]; CSF", "result": 34, "unit": "%"}, {"measurement": "difference of level between MCI/AD and control CSF", "setting": "[2]; MCI/AD vs control CSF", "result": "no significant differences"}]}, {"compound": "IAPP: plasma IAPP quantified by Human IAPP ELISA, which detects IAPP37 only (KCNTATCATQRLANFLVHSSNNFGAILSSTNVGSNTY; Islet amyloid polypeptide; UniProt P10997 34-70, looked up)", "values": [{"measurement": "difference of plasma IAPP between AD and controls by IAPP ELISA", "setting": "[3]", "result": "no significant difference"}]}]}
